# Measured values reported in PubChem BioAssay (EPA / NIEHS).
# Chains of the proteins cited; added tags and fusions are not shown.
# UniProt P04637, whole entry, looked up: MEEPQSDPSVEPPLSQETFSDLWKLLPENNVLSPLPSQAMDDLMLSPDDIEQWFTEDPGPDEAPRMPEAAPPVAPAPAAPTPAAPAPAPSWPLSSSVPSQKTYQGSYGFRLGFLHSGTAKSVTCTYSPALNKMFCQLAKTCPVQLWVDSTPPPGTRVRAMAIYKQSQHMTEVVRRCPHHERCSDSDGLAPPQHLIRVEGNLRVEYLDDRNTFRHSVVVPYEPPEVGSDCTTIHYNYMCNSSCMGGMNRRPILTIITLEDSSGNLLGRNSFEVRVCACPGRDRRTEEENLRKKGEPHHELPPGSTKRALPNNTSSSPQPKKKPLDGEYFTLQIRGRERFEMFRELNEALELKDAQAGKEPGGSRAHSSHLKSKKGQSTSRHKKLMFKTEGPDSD
# “And” between values parts separate entries of the source, which are not always exact repeats. Equal values may be shown once. The shares of active, inactive and inconclusive entries below differ from those in the screen. Potencies of inconclusive entries are doubtful fits and often do not repeat. A structure can be active in one record and inactive in another. The source made the active and inactive calls. Rule for the calls: active = hit-call score of the fitted dose curve at least 0.9, where 1 is the maximum; inconclusive = response in the unintended direction; inactive = score below 0.9.
# Test system: not listed separately
# Assay: TOX21_p53_BLA_p5_viability: Viability Assessment in the Tox21 HCT-116 p53 Agonism Beta-lactamase Assay, Phase 5 (AID 2283600)
# How it was run: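 Compounds, pinned from DMSO at 217-fold dilution, were left on the cells for 16 h. The viability endpoint was ATP content measured by CellTiter-Glo luminescence, where falling signal reflects cytotoxicity.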
Structure (SMILES),AC50,outcome
SCCc1cnccn1,inconclusive: 46.1 µM,
CCCCCCCCOC(C)=O,inconclusive: 4.32 µM,
CNCc1ccc(NC(=O)c2c[nH]c3c2C(=O)CCC3)cc1,inconclusive: 46.1 µM,
Cc1cccc(N(C)C(=S)Oc2ccc3ccccc3c2)c1,,inactive
CN(N=O)C(=O)N[C@@H]1[C@@H](O)[C@H](O)[C@@H](CO)O[C@@H]1O,inconclusive: 28.1 nM and inconclusive: 10.3 µM,inactive
O=C1CCCC=CCCCCCCCCCC1,inconclusive: 30.3 µM,
Clc1ccc(Cl)c(Cl)c1Cl,inconclusive: 46.1 µM,
CCCC1CCC(=O)O1 (stereo unspecified),inconclusive: 46.1 µM,
CC(C)(Oc1ccc(C2CC2(Cl)Cl)cc1)C(=O)O (stereo unspecified),inconclusive: 46.1 µM,inactive
CCCCCCCCCCCCCO,inconclusive: 46.5 µM,
CCCCCCCCCCCCCCCCCC[N+](C)(C)C,active: 62.8 µM,
COC(C(=O)O)c1ccccc1 (stereo unspecified),inconclusive: 0.00379 µM,
C=CCOC(=O)CCCCCC,inconclusive: 46.1 µM,
O=C(CS)OCCOC(=O)CS,inconclusive: 46.1 µM,
CC=Cc1ccc(O)c(OC)c1,inconclusive: 413 nM and inconclusive: 46.1 µM,inactive
Nc1ccc(N)c2c1C(=O)c1ccccc1C2=O,,inactive
CC(C)OB(OC(C)C)OC(C)C,inconclusive: 46.1 µM,inactive
CCSC(=O)N(CC(C)C)CC(C)C,inconclusive: 46.1 µM,
CCOc1ccc(NC(C)=O)cc1,inconclusive: 46.1 µM and inconclusive: 47.3 µM,

Structure (SMILES),AC50,outcome
COC(=O)CCCC(=O)OC,inconclusive: 46.1 µM,
CC(C)C1CCC(O)CC1 (stereo unspecified),,inactive
CCCCCC1CCCC(=O)O1 (stereo unspecified),inconclusive: 0.103 µM,
CCCSc1ccc2nc(NC(=O)OC)[nH]c2c1,inconclusive: 3.33 µM,
CCCC(C)C(=O)OCC (stereo unspecified),inconclusive: 0.439 µM,
CC=CC=CCOC(=O)C(C)C,inconclusive: 46.1 µM,
CC1(C)C(=O)N(Br)C(=O)N1Cl,inconclusive: 46.1 µM,
CC(C)CC(C)(O)C#CC(C)(O)CC(C)C (stereo unspecified),inconclusive: 9.98e-05 µM,inactive
CC(C)CC(=O)CC(C)CC(C)C (stereo unspecified),inconclusive: 4.7 µM,
c1ccc(CNc2ncnc3nc[nH]c23)cc1,,inactive
CC1(C)O[C@@H]2[C@@H](CO[C@@]3(COS(N)(=O)=O)OC(C)(C)O[C@@H]23)O1,inconclusive: 46.1 µM,inactive
O=C1O[C@H]([C@@H](O)CO)C(O)=C1O,inconclusive: 46.1 µM [middle of 4 runs],inactive
c1ccc(CNCc2ccccc2)cc1,inconclusive: 3.38 µM,
NC(=O)c1ccc([N+](=O)[O-])cc1Cl,inconclusive: 46.1 µM,
CC(=O)Nc1ccccc1O,inconclusive: 46.1 µM,
CCOC(=O)N1CCC(=C2c3ccc(Cl)cc3CCc3cccnc32)CC1,active: 75.4 µM,inactive
CCCCCCOc1ccc(O)cc1,,inactive
Cc1cc(=O)oc2cc(N(C)C)ccc12,inconclusive: 46.1 µM,
O=C(OCCOCCOC(=O)c1ccccc1)c1ccccc1,inconclusive: 0.0792 µM,

# Target: Cellular tumor antigen p53 (Homo sapiens) (UniProt P04637)
# Assay: TOX21_p53_BLA_p4_ratio: Tox21 HCT-116 p53 Agonism Beta-lactamase Assay, Ratio, Phase 4 (AID 2283601)
# How it was run: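 HCT116 cells carrying an inducible beta-lactamase reporter were plated at 4000 cells/well, rested 5 h, then exposed to compounds in DMSO (217-fold dilution) for 16 h at 37C. CCF4-AM substrate was loaded 2 h at room temperature; 460/530 nm emission ratio scored gain-of-signal versus DMSO.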
Structure (SMILES),AC50,outcome
SCCc1cnccn1,active: 60.3 µM,
O=C1CCCC=CCCCCCCCCCC1,inconclusive: 46.1 µM,
Clc1ccc(Cl)c(Cl)c1Cl,active: 0.436 nM and inconclusive: 45.6 µM,
CCCCCCCCCCCCCO,inconclusive: 6.34 µM,
CCCCCCCCCCCCCCCCCC[N+](C)(C)C,active: 75.3 µM,
COC(C(=O)O)c1ccccc1 (stereo unspecified),inconclusive: 84.5 µM,
C=CCOC(=O)CCCCCC,,inactive
O=C(CS)OCCOC(=O)CS,active: 53.3 µM,
CC=Cc1ccc(O)c(OC)c1,inconclusive: 46.1 µM,
Nc1ccc(N)c2c1C(=O)c1ccccc1C2=O,active: 13 µM,
CC(C)OB(OC(C)C)OC(C)C,inconclusive: 46.1 µM and inconclusive: 46.2 µM,
CCSC(=O)N(CC(C)C)CC(C)C,,inactive
CCOc1ccc(NC(C)=O)cc1,inconclusive: 47.3 µM,
COC(=O)CCCC(=O)OC,,inactive
CC(C)C1CCC(O)CC1 (stereo unspecified),,inactive
CCCCCC1CCCC(=O)O1 (stereo unspecified),,inactive
CCCSc1ccc2nc(NC(=O)OC)[nH]c2c1,active: 339 nM and active: 175 nM,
CC=CC=CCOC(=O)C(C)C,inconclusive: 75.3 µM,
CC1(C)C(=O)N(Br)C(=O)N1Cl,inconclusive: 46.1 µM,
CC(C)CC(C)(O)C#CC(C)(O)CC(C)C (stereo unspecified),inconclusive: 45.3 µM,
c1ccc(CNc2ncnc3nc[nH]c23)cc1,inconclusive: 46.1 µM,
CC1(C)O[C@@H]2[C@@H](CO[C@@]3(COS(N)(=O)=O)OC(C)(C)O[C@@H]23)O1,inconclusive: 46.1 µM,
O=C1O[C@H]([C@@H](O)CO)C(O)=C1O,inconclusive: 23 µM and inconclusive: 92.3 µM,
c1ccc(CNCc2ccccc2)cc1,inconclusive: 46.1 µM,
NC(=O)c1ccc([N+](=O)[O-])cc1Cl,,inactive
CCOC(=O)N1CCC(=C2c3ccc(Cl)cc3CCc3cccnc32)CC1,,inactive
CCCCCCOc1ccc(O)cc1,active: 72.5 µM,
Cc1cc(=O)oc2cc(N(C)C)ccc12,active: 53.6 µM,
O=C(OCCOCCOC(=O)c1ccccc1)c1ccccc1,inconclusive: 46.1 µM,
